Experiment: peptide made by a vendor
Details: whole synthesis

## GVPVWA-FQAKDVENASAPV (GVPVWAFQAKDVENASAPV; listed as Saponaria vaccaria)
  purity (crude or final not stated): purity>75%

— patent US9394561B2 (National Research Council of Canada, priority 2011, dated 2016)
